Screen size: about 52,000 sequences; about 210 (0.4%) were called active.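 The calls were made as follows: active = gene whose silencing raises cell survival under the drug, median off-target-corrected z-score across its silencing RNAs 2 or more; inactive = the rest.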 Some of the results follow.

This test is described as follows: Resistance to Poly (ADP-Ribose) Polymerase inhibitor: Gene Identification via Genome-wide siRNA Screen. As to conditions: mouse BRCA2 R2336H ES cells, olaparib, CellTiter-Glo viability; stronger effect = higher value. In a few lines: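 Mouse BRCA2 R2336H ES cells were reverse-transfected with siRNA (20 nM final), treated at 48 h with 500 nM olaparib, and read by CellTiter-Glo after 72 h. Scores: MAD-based z per siRNA, median per gene, seed off-target correction.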
In general terms: In ATP-based viability assays light output follows the ATP content of the culture.
As for GCUCUGAACUCAAUAAUAATT against Apg7l, the z-score is inactive: -0.403.

Regarding GGACCUAUCAACUGAGUUUTT against Hrc, the z-score is inactive: -0.913.

For the sequence “GGACUUCUCAUCCUAUUUATT against 4833421E05Rik”, the z-score was inactive: -1.38. Then “GCACUUCCGAACAUCUAGCTT against 9130404D08Rik”, with inactive: -0.104; and “CCUUUAAAUGACCAUACUUTT against 1810057B09Rik”, with inactive: 0.45. In the case of CCAUGCCCACUGGAUAGAUTT against BC047219 it was inactive: 1.82; in that of GGAUCUGCCUGAUCAAAAGTT against Ivl, inactive: 0.543; in that of “GGAGGAGUGCAAGAAGAAGTT against 1110025H10Rik”, inactive: -1.36. In the case of GGAUUACAGGCAUUUGGUUTT against Hmgn1 it was inactive: -0.0101; in that of “GCUGGAGUUCAGAACAUAATT against C920008G01Rik”, inactive: 0.0423; in that of GCAUCAAACCUGGUUCGAATT against Mast2, inactive: -0.818. Regarding “GGCAAUGGACCUUUGAUGCTT against 2310042N02Rik”, the z-score is inactive: -0.531. Then GGUAGCUGUGAAGAUCAUCTT against Mark2, with inactive: -0.201; and “GGUCCUUGAGCUAAGGACATT against A030009A06Rik”, with inactive: -0.081. Then CCUGAAUUCUACAAGGUUATT against Plg, with inactive: 1.13. In the case of GCGCAAGGAUAACUUUCAATT against Pib5pa it was inactive: -0.309; in that of GGCUAGACUACAUCACAGCTT against H2-Ke2, inactive: 0.000787; in that of AGGAAAGCUUUCUUCACCUTT against Olfr206, inactive: 0.214. As to “GCCACUUAGAAUGACCUAATT against 5330431N19Rik”, the z-score was inactive: 1.35. Then “GGAAAAGAAAAUCAUUGCGTT against 1500016L11Rik”, with inactive: -0.595. In the case of GGGCGACUUUAGCUUUUAUTT against MGC47262 it was inactive: -1.24.

Consider GGCUUUUAGACAUUUAUCUTT against Pdlim3, for which the z-score was inactive: 0.279. Then GCUAAUUCAUGAAUUGAUGTT against Ofd1, with inactive: -0.985.

As to GCUAUCGUUCGUCCAGCAUTT against Atf2, the z-score is inactive: -2.27. In the case of CCAUUUGAUCAAGCUUUAGTT against Spock3 it was inactive: 0.707; in that of GGUAUCAAUGAUUUUCUUGTT against Tas2r110, inactive: 0.357; in that of GGAAACAUCAGUGAGUCCGTT against Igfbp3, inactive: 0.385. In the case of GCGGUAGUUUCACACUUAUTT against Onecut1 it was inactive: -0.281.

For GCGCGACAACCUGAUUCAATT against BC034204, the z-score is inactive: 1.36.

Turning to GGCAUUAUACCCAUCAGGCTT against Mtvr2, the z-score was inactive: 0.835. In the case of CGGUAUGAGUAGGAUCUCCTT against Cd83 it was inactive: -0.494. Then “CCAUCCGUAACAUCGACUGTT against 5730589L02Rik”, with inactive: 0.333; and GGAGAUCUCAGAGAGUGAGTT against Drpla, with inactive: 0.854; and “GCUACGGCCAGACGAACUUTT against A430005L14Rik”, with inactive: 0.527. In the case of GGAGGGACCAGAAAUAAUUTT against Snag1 it was inactive: 1.04; in that of GGAGAUUGGCAUAGAGAAGTT against Myo5b, inactive: 0.495; in that of “GGAGUCCGCUCAGAAUUUGTT against 2310007H09Rik”, inactive: -0.391. Turning to GGAAACAACUGAUGACUUATT against Slc7a8, the z-score was inactive: -0.308. In the case of “GCUAGGAUGUCUGAAAGAGTT against 4921528I01Rik” it was inactive: 1.35. In the case of GGCUGUGCUUUACAACUUUTT against Olfr982 it was inactive: -0.183. Then GCUCCUUUAUAUUCAACUGTT against Ddx11, with inactive: -0.0177.

With GACCUUCCUGUCUUCCCUCTT against Cklfsf5, the z-score was inactive: 0.536. Then GGGCUGGAAUAAACUUGUCTT against Usp15, with active: 1.51; and “GGAUGUCAACAUUCGAGAUTT against 4932417I16Rik”, with inactive: 0.888; and GGGAAUUAGCCAUUAUAACTT against Pcdhb11, with inactive: 0.4. Then GCUACAGCAGACAUAGAAATT against Sparcl1, with inactive: -0.131. As to “GCAAAAACCGUGAUGUGUATT against 1810054G18Rik”, the z-score was inactive: -0.463. Then GGAUUACCAAUCGGCCAAGTT against Egr3, with inactive: 0.0854; and GGUUCUAGAUGCUAAUAAGTT against Narfl, with inactive: -0.875.

Regarding GGCCUUCAACGAUUCAAUCTT against Olfr770, the z-score is inactive: -0.329.

Regarding GGACUUCACCAUCCACGAATT against Frag1, the z-score is inactive: 1.18. In the case of “GGACCCAGCUCCUGUACAUTT against 0610043B10Rik” it was inactive: -0.36; in that of “GGCAUCCAUUCAAGAGAAUTT against 4122402O22Rik”, inactive: -0.745; in that of GGAACAAGAGAAGCAAAUATT against Ifitm7, inactive: -0.00246. In the case of GGUAUUUGAAGAUGUCAAATT against Abcd1 it was inactive: 1.42; in that of GGCUGUUCAGAAGUUCACGTT against Saa3, inactive: 0.0347; in that of GGAAAAUCAUUUCAUCGUGTT against Aurkc, inactive: 1.04. In the case of GGUUGGCACAACUGUGUACTT against Cr2 it was inactive: -2.34; in that of GGGACUCUCAAAAUUCACUTT against Bnc2, inactive: -0.434. For the sequence GGGAUGAAGUAGUUUUAAUTT against Zfp403, the z-score is inactive: 0.0849. Then GGAUACGAGACAAUGAGAATT against Kctd2, with inactive: -0.607. For “GCAGAGUCACCUUACUAACTT against 4632404H22Rik”, the z-score is inactive: 0.0936. Then GGAAGUCUUGAGCCUGCUUTT against Folr2, with inactive: -0.626; and GGUACUUUUAUCUUAGCUATT against BC034902, with inactive: -0.59. Then “GGGUAAAACAGAGGAAGAATT against 2610209M04Rik”, with inactive: -0.867. Turning to GGAUGAGAAUGGGAAGAUUTT against Ard1, the z-score is inactive: 0.911.

In the case of “GCCAAUAAGGAAGCGGAUUTT against 2610528M18Rik”, the z-score was inactive: 1.86. Then GGCAGUGGGAUUACAAUGATT against Tnrc11, with inactive: -1.3; and GGAGUCUCCUAAAAAAGGATT against Tcof1, with inactive: -0.688; and “GAGAAUUAAAGUCAAACGUTT against 4930485D02Rik”, with inactive: 1.59.

As for GCUUGUAGUGACUGCCUAUTT against V1rc22, the z-score was inactive: -1.8. For the sequence GGGUUGGAAGCAAUUGCUGTT against Ubtd1, the z-score is inactive: -1. In the case of CCUAGGUUGUCGCCAGGUUTT against Nkx2-3 it was inactive: 0.0319; in that of GGGUCAUCACCAUCAUGUCTT against Slc22a5, inactive: 0.522.

In the case of GCCGGGACCAUGAUUAUAGTT against Rbm10, the z-score is inactive: -1.03.

Consider “GGAGCAAGUCAAGUCUCAUTT against 5832424M12”, for which the z-score was inactive: 1.47. Then GGCUGUACUAACUGUCGUUTT against AA415817, with inactive: -0.537. Then “GGUCAUUUCAAGUGCUAAGTT against D7Ertd680e”, with inactive: 1.01; and GGACUUCUUGGACCUACUUTT against F5, with inactive: -1.35; and “GGUCUGAAAAUGGAAUACCTT against D330038K10Rik”, with inactive: 0.138. Then “CGGGAAGCAUAUUAUCUAUTT against 6430601A21Rik”, with inactive: 0.801; and GCAACAUCACACAAGACCATT against Il13, with inactive: 0.273; and GCUAGAGUAUGAGAACUUCTT against Cdc14b, with inactive: -1.31. Take CCAACCUAAGCACUCCAAATT against BC010250: the z-score is inactive: -2.79. Turning to CCAGCAAUAACAAUCAGAGTT against Prosapip1, the z-score was inactive: -0.107. Then “GGACCACUCCAAGAGUUCUTT against B130055D15Rik”, with inactive: -1.72. Then GCGGUAAGGAACUUAAUGATT against Fv1, with inactive: 1.11; and GGAACACACAGAGGUUUAUTT against Ptpla, with inactive: -0.682. For the sequence GGAGAUCUAUUCGGACACUTT against Inpp5a, the z-score was inactive: 0.263. As for “GCCGAACAAAAACACCGAUTT against A430107P09Rik”, the z-score was inactive: 0.0605. In the case of CCACUGUGCAAGAAGCACGTT against Ldb3 it was inactive: -0.796. Then GGUUAUCAAGGACCAAAAATT against Ivl, with inactive: -2.21; and GGACAAAGGUGUCAACUCCTT against Crmp1, with inactive: -0.491.

On to GGAAUGAAUAAGUAGAGACTT against Unc5cl, for which the z-score is inactive: -0.0998.

Take GCCGAGAGAGCCAAUACAATT against Tcd1d16: the z-score was inactive: -0.49.

As for GGUUCACUUCAGUGUAUAUTT against Morf4l1, the z-score was inactive: -0.728. Take GGUACUUGAGUUGGCAGGATT against H2afz: the z-score is inactive: 1.93. Then “GGCUGUGGGUCUAUUCUACTT against 3110005O21Rik”, with inactive: -0.846; and “GGGUGAUUUCUACCUUCAATT against D630003M21”, with inactive: -0.929. Then GGUUGAGUUCCUGUAACUUTT against Mat1a, with inactive: -0.0141; and “CCAUAGUGUAUCUGACUGGTT against D6Ertd349e”, with inactive: -1.87; and GCAAGAACCUGGCCCAGAATT against Folr4, with inactive: -2.53. Then GUUCUACAUCAAGACAUCCTT against Crabp1, with inactive: 1.97.

Source of the values: PubChem BioAssay AID1347423 (Functional Genomics Laboratory (NCATS/FGL), 2020).
